Source: patent US9682992B2, “Derivatives of camptothecin, a method of producing them and their use” (INSTYTUT CHEMII ORGANICZNEJ POLSKIEJ AKADEMII NAUK, priority 2012, dated 2017)

Tested on: DNA oligomer d(GCGATCGC)2
Test: PFGSE NMR diffusion measurement of DNA/TPT derivative before and after UV exposure
Assay type: binding
Details: prior to UV exposure, FIG. 1

CC[C@@]1(O)C(=O)OCc2c1cc1n(c2=O)Cc2cc3c(C[N+](C)(C)C)c(O)ccc3nc2-1.O=S(=O)([O-])C(F)(F)F [[Me3N^+CF3SO3^−]]
diffusion coefficient Di of DNA with non-covalently bound derivative of TPT: ca. 1.7×10^−10 m^2/s | diffusion coefficient Di of unbound derivative of TPT in rapid exchange with DNA: 2.3×10^−10 m^2/s
